PubChem BioAssay AID1259405, NCATS, 2018

- Assay: 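Silenced genes that increase secreted GFP made by CHO cells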 (primary screen)
- Cell system: Chinese hamster CHO-K1 ovary cells with stable secreted eGFP expression
- Reagent: single siRNA against mouse genes, 0.8 pmol siRNA per well (2 µl of 400 nM stock)
- Duration: 3 days
- Read-out: 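Per-well intracellular GFP measured by laser scanning cytometry, plus viability from ATP luminescence, each relative to plate median of non-targeting control wells, in %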
- Scale: GFP, % of control: higher = more GFP per well, higher productivity; viability (ATP), % of control: higher = more viable cells (more ATP)
- Call rule: 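Called active when intracellular GFP, relative to negative control, is at or above 120%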
The deposit covers about 50,000 reagents; shown is a random part of them. About 4,000 of all reagents (8%) count as active. 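Mouse siRNA library applied to hamster cells; one well for each siRNA.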 A number with no mark means an inactive call. Reagents against one gene are numbered here.

gene,reagent no.,"GFP, % of control","viability (ATP), % of control"
Rnf34 (GeneID 80751),1,68,61.7
Rnf34 (GeneID 80751),2,77.5,67.1
Rnf34 (GeneID 80751),3,129 (active),104
Cyria (GeneID 76820),1,115,86.3
Cyria (GeneID 76820),2,69,70.9
Cyria (GeneID 76820),3,129 (active),124
Pigo (GeneID 56703),1,154 (active),71.1
Pigo (GeneID 56703),2,147 (active),83.3
Prss8 (GeneID 76560),1,86.4,86
Prss8 (GeneID 76560),2,56.4,32
Prss8 (GeneID 76560),3,67.6,36.5
Cmc2 (GeneID 66531),1,81.7,98
Cmc2 (GeneID 66531),2,101,66.6
Cmc2 (GeneID 66531),3,50.2,58.1
Spag9 (GeneID 70834),1,80.6,82.5
Spag9 (GeneID 70834),2,104,89.1
Slc7a13 (GeneID 74087),1,52.2,63
Slc7a13 (GeneID 74087),2,133 (active),81.1
Slc7a13 (GeneID 74087),3,80.8,82.2
Prb1b (GeneID 381832),1,79.1,99.1
Prb1b (GeneID 381832),2,77.8,64.2
Prb1b (GeneID 381832),3,64.4,81.8
Ccl27a (GeneID 20301),1,120 (active),121
Ccl27a (GeneID 20301),2,89.3,66.9
Atg4b (GeneID 66615),1,105,92.1
Atg4b (GeneID 66615),2,98.2,73.2
Smim19 (GeneID 102032),1,41.4,68.2
Smim19 (GeneID 102032),2,80.5,86.9
Smim19 (GeneID 102032),3,88.5,86.2
Nop58 (GeneID 55989),1,102,74.8
Nop58 (GeneID 55989),2,59.5,68.3
Hapln2 (GeneID 73940),1,64.5,66
Hapln2 (GeneID 73940),2,93.8,74.8
Hapln2 (GeneID 73940),3,80,68.9
Mrgprb1 (GeneID 233231),1,71.3,69.5
Mrgprb1 (GeneID 233231),2,55.4,39.8
Mrgprb1 (GeneID 233231),3,108,135
Skil (GeneID 20482),1,80.7,78.1
Skil (GeneID 20482),2,92.1,90.3
Skil (GeneID 20482),3,86.5,118
Cimip7 (GeneID 434439),1,67.6,63
Cimip7 (GeneID 434439),2,54.9,92.6
Cimip7 (GeneID 434439),3,96.8,92.4
Zfp574 (GeneID 232976),1,64.1,44.7
Zfp574 (GeneID 232976),2,97.3,92
Rgmb (GeneID 68799),1,59.5,78.4
Rgmb (GeneID 68799),2,32,25.7
Rgmb (GeneID 68799),3,65.1,61.7
Or10p22 (GeneID 18373),1,37.3,46.7
Or10p22 (GeneID 18373),2,87.8,92.6
Or10p22 (GeneID 18373),3,56.9,36.3
Zfp1 (GeneID 22640),1,67.5,77.2
Zfp1 (GeneID 22640),2,179 (active),113
Zfp1 (GeneID 22640),3,105,78.6
Zfp1 (GeneID 22640),4,101,92.2
Zfp1 (GeneID 22640),5,97.9,91.7
Zfp1 (GeneID 22640),6,72.4,89

A portion taken from the entries so far, for reference:
gene,reagent no.,"GFP, % of control","viability (ATP), % of control"
Smim19 (GeneID 102032),3,88.5,86.2
Nop58 (GeneID 55989),1,102,74.8
Nop58 (GeneID 55989),2,59.5,68.3
